Test [1] addresses T1, FLAG–Numb-1 (human Numb isoform-1, full length) (human) (UniProt P49757).
T1 sequence: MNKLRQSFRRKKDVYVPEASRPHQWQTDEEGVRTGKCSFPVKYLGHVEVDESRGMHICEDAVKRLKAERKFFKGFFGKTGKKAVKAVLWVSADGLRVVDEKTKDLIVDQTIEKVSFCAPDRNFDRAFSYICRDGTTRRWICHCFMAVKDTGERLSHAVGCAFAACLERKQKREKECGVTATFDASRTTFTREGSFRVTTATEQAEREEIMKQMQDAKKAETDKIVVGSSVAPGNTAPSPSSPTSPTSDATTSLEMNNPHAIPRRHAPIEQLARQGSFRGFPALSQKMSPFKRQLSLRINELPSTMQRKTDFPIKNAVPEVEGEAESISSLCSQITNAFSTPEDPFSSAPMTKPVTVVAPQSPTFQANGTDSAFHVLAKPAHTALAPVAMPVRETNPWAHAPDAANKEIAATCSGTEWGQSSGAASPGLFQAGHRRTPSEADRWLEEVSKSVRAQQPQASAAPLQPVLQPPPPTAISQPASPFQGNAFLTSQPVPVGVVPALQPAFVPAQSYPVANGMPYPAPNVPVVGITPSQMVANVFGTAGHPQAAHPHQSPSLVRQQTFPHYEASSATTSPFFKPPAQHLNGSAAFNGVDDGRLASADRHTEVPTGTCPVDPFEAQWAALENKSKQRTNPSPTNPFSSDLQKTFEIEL
Description: co-IP; HEK293 cells cotransfected with Mdm2 constructs and FLAG-tagged Numb constructs; anti-FLAG IP, immunoblot; in Fig. 1 A with siRNA against p53 or control oligonucleotides. For orientation: A western blot detects proteins with antibodies after separation by electrophoresis.

The target of test [2] is T2, FLAG-tagged Numb isoform-3 (full length) (human) (UniProt P49757).
T2 sequence: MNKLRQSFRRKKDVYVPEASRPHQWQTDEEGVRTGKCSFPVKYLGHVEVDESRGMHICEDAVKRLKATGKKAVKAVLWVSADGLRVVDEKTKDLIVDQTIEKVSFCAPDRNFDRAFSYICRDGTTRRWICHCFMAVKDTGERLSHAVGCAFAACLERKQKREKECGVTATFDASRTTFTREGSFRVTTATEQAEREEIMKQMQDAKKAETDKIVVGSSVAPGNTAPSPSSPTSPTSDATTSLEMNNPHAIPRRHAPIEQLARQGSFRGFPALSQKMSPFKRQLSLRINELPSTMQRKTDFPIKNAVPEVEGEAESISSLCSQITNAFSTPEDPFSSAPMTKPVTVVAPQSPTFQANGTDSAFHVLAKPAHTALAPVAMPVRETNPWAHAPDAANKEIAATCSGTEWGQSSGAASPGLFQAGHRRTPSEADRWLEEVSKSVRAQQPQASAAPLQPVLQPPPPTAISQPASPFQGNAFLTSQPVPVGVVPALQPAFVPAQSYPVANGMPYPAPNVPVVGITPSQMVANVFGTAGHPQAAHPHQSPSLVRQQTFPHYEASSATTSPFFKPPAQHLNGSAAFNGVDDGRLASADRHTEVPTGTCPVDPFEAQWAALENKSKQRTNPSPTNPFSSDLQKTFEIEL
The description is as above.

Here are results for two substances from PMC5800818.

These are yes or no findings as the source states them, for the method shown. Binding seen in cells or lysates may run through a third protein. A result given as binding can be weak or reduced; the word gives no strength. Tags and fused reporters may be left off the sequences shown.

Turning to “catalytically inactive Mdm2-C464A mutant (from UniProt Q00987-11)”, the binding entry in test [1] is reported as “binds”.
On to “β-Adaptin (human (endogenous in HEK293))”, for which the binding result in test [2] and in test [1] was “binds” throughout.
